# PubChem BioAssay AID1224830 | NIAID, 2016
# Aim: 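Host factors that control LPS-induced TNF expression in human macrophages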 (primary screen)
# System: human THP-1 monocytic leukaemia cells, TNF dual-luciferase reporter clone, PMA-differentiated to macrophage-like cells
# Knock-down reagent: siRNA pool against human genes, 50 nM
# Timing: LPS for 4 h, given about 3 days after siRNA transfection
# Challenge: bacterial LPS (TLR4 ligand), 10 ng/ml
# Detection: 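TNF firefly reporter luminescence divided by renilla, normalised to the plate median, then turned into a robust z-score for each replicate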
# Direction: TNF reporter robust z-score: higher = stronger TNF reporter response to LPS
# Rule for the call: 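a well is active when its z-score exceeds 2.8 or falls below -1.5; control wells carry no call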
# Shown is a random part of about 18,000 reagents tested. Over the whole deposit, about 2,900 (16%) got an active call. 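Calls are made per well; low scores hint the gene aids the LPS response, high scores that it dampens it.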 Unmarked entries are inactive. Repeated entries: four replicate wells of each siRNA pool.
Target gene,TNF reporter robust z-score
DDX23,-0.69
DDX23,0.38
DDX23,-0.9
DDX23,-0.29
NAA38,0.2
NAA38,0.33
NAA38,0.79
NAA38,0.25
SMCR8,-0.97
SMCR8,-0.12
SMCR8,-1.21
SMCR8,-0.44
SLC6A19,-0.01
SLC6A19,-0.88
SLC6A19,1.47
SLC6A19,1.17
RTN2,-0.66
RTN2,0.12
RTN2,-0.7
RTN2,-0.86
RASL10B,-0.65
RASL10B,-1.05
RASL10B,-0.61
RASL10B,-0.37
LAX1,-1.01
LAX1,-0.87
LAX1,-0.23
LAX1,-0.46
THTPA,-0.91
THTPA,0.01
THTPA,-0.72
THTPA,-0.95
WDR37,-1.33
WDR37,-1.59 (active)
WDR37,-0.69
WDR37,-0.95
SOAT2,-0.64
SOAT2,-0.76
SOAT2,-1.53 (active)
SOAT2,-0.48
OR52E2,0.85
OR52E2,-0.19
OR52E2,0.24
OR52E2,-0.31
WBP4,0.06
WBP4,0.91
WBP4,0.52
WBP4,0.38
FAM9B,-0.4
FAM9B,0.22
FAM9B,-0.34
FAM9B,-0.23
CWC27,-0.64
CWC27,-0.56
CWC27,0.09
CWC27,0.51
SYT6,0.17
SYT6,1.06
SYT6,0.12
SYT6,0.56
USP14,0.71
USP14,0.45
USP14,0.21
USP14,-0.01
TSLIG3C,-0.25
TSLIG3C,-0.46
TSLIG3C,-0.71
TSLIG3C,-0.58
PTPRD,0.84
PTPRD,-0.48
PTPRD,0.83
PTPRD,2.22
ETV1,-0.16
ETV1,-0.14
ETV1,-0.55
ETV1,0.33

Called active, among the entries above:
Target gene,TNF reporter robust z-score
WDR37,-1.59 (active)
SOAT2,-1.53 (active)
